Measured values taken from patent publication US9291619B2, “Method for detecting non-transferrin bound iron” (Yissum Research Development Company of the Hebrew …, priority 2011, dated 2016).
At least one structure is not confirmed: it was looked up by name or label, or the drawing left a doubt.

Tests used:
Type in all cases: biochemical, human
[1] = eLPI assay (LPI assay with added NTA)
Method: (§1) LPI determination, The LPI (Labile iron in plasma) assay was used as described previously or in the presence of NTA added from a concentrated solution. In experiments testing the effects of various additives on LPI, 20 μl of the additives dissolved in HBS (HEPES buffered saline composed of 20 mM HEPES, 150 mM NaCl, pH 7.4) were mixed with 20 μl of serum. Control samples and iron standards were similarly diluted with HBS. LPI assays without added NTA (‘redox-active LPI’) are designated “LPI” and LPI assays with added NTA (0.5 mM unless stated otherwise) are designated “eLPI”.
As the iron-mobilizing effect of NTA on NTBI has been previously shown to be dependent on the NTA concentration, the effect of increasing NTA concentrations on LPI levels in 9 representative sera: 7 from thalassemia patients and 2 from normal individuals (FIG. 1) was assessed. […] The detected LPI signal reached maximum levels at 0.1 mM NTA in sera with LPI <1 μM and at 0.5 mM NTA in thalassemic sera with LPI >1 μM. Control sera […] remained LPI-negative at all tested concentrations of NTA, a finding corroborated in LPI tests carried out with 0.5 mM NTA on >100 sera from normal individuals (data not shown). The same values of LPI were obtained when sera were assayed with 0.5 mM NTA present in the final assay solution or when sera were preincubated with NTA for 1 hr prior to 10-fold dilution with assay solution lacking NTA. Based on the relatively fast (within minutes) and distinct extraction/mobilization of LPI components by moderate NTA treatment depicted in FIG. 1, a modality of the original LPI assay by incorporating 0.5mM NTA as extracting/mobilizing agent was adopted and referred to as enhanced LPI (eLPI).

[2] = DCI (directly chelatable iron) assay with fluorescein-DFO; conditions: DCI assays without and with NTA; 2 hr incubation with thalassemia serum
Text: DCI determination. The DCI assay (directly chelatable iron) was used for sample analysis of labile iron by assessing its binding to fluorescein-DFO (Table 1) with a fluorescence plate reader or adapted for flow cytometry using as analytical probe fluorescein and DFO covalently coupled to chemically modified polystyrene beads (Spherotec Inc., Lake Forest, Ill., USA) (and an Eclipse instrument (iCyt, Champaign, Ill., USA) (Breuer et al, to be published elsewhere). In tests of the effect of NTA on DCI determination, NTA was added from a stock solution directly to the assay reagents. In experiments testing the effects of various additives on DCI, 20 μl of the additives dissolved in HBS were mixed with 20 μl of serum samples and the combined mixture (40 μl) was used in the assay. Control samples and iron standards were similarly diluted with HBS. In previous publications the term DCI has always indicated the assay format without NTA. In the present work the two formats of the
DCI assay are designated DCI (−) (without NTA) and DCI (+) (with 0.1 mM NTA).
For comparing eLPI with NTBI, the present inventors have employed an alternative assay for NTBI, termed directly-chelatable iron or DCI (FIG. 2, lower panel). Unlike LPI and eLPI which measure iron redox activity, DCI measures the accessibility of NTBI to a fluorescent, high-affinity chelator probe (fluorescein-DFO). […]

[3] = LPI (labile plasma iron) assay without NTA; conditions: 2 hr incubation with thalassemia serum at room temperature
Method: Determination of LPI and DCI. The properties of the assays used in this study in their different modalities are compiled in Table 2, below.
as §1
Measurements of LPI were originally designed for the detection of labile forms of iron in native human plasma or serum. […] This led to simple and sensitive assays that are performed under nearly physiological conditions, with 40 μM ascorbate added to initiate redox cycling of the iron and ensuing generation of reactive oxygen species (ROS) that are quantified by a fluorescence assay (Table 1). […] The detected LPI reflects the most labile or redox-active forms of NTBI in native plasma or serum, but not putative forms bound to non-labile ligands (e.g. citrate, albumin) In addition, the detection of LPI might be susceptible to masking by plasma antioxidants. […]

[4] = eDCI assay (DCI assay with 0.1 mM NTA)

| SMILES | serum concentration of chelator required for reducing eLPI by 2 μM ([1]; 2 hr incubation with thalassemia serum at room temperature, eLPI assay (0.5 mM NTA)) [µM] | concentration in the serum required to decrease DCI by 2 μM, compared with LPI and eLPI [2] | serum concentration of chelator required for reducing LPI by 2 μM [3] [µM] | increase of LPI using 1 mM NTA instead of 0.4 mM ([1]; 22 sera from Thalassaemia patients) [µM] | EC50 ([1]; seven thalassemic sera, fluorescence changes relative to 0.8 mM NTA, hyperbolic fit, read-out: half max concentration of NTA for enhancement of LPI signal) [µM] | plateau value of fluorescence change relative to that at 0.8 mM NTA ([1]; seven thalassemic sera, hyperbolic fit r^2=0.935) | average increase of DCI in the presence of NTA ([4]; 22 TM sera, without vs with 0.1 mM NTA) [µM] | increase of DCI values by addition of 0.1 mM NTA ([4]; model systems and patient sera) [µM] |
| --- | --- | --- | --- | --- | --- | --- | --- | --- |
| O=C(O)c1ccc(-n2nc(-c3ccccc3O)nc2-c2ccccc2O)cc1 [DFR, Deferasirox] | ~42 | markedly greater | ~25 | – | – | – | – | – |
| O=C(O)CN(CC(=O)O)CC(=O)O [NTA, Nitrilotriacetate] | – | – | – | 0.1 ± 0.1 | 100 ± 50 | 1.12±0.05 | 0.14 ± 0.13 | ≤ 0.1 |
